Test results: patent US20250312407A1 (AJINOMOTO CO., INC., priority 2019, published 2025)
Plain letter strings leave the end groups untold.

How the values were obtained:
Conditions in all cases: whole synthesis
[1] = general procedure: Fmoc solid-phase peptide synthesis; Fmoc-Leu-Wang resin
[2] = general procedure: Fmoc solid-phase peptide synthesis; Fmoc-Gly-Wang resin
[3] = general procedure: Fmoc solid-phase peptide synthesis; Fmoc-Lys (Boc)-Wang resin

Sequence	final purity (method not given) [1] [%]	final purity (method not given) [2] [%]	also measured
LIVTQTMKGL (Designed peptide)	98.3		
VTQTMKGL (Designed peptide)	99.5		
IVTQTMKGL (Designed peptide)	99.4		
LIVTQTMKG (Designed peptide)		99.3	
IVTQTMKG (Designed peptide)		99.3	
LIVTQTMK (Designed peptide)			final purity (method not given) [3]: 99.0%
